Experimental data reported in patent US20200392228A1.
Numbering of substitutions follows the chain as printed. No constants are given. Whether binding was seen depends on the method and setting. A result given as binding can be weak or reduced; the word gives no strength.

B1: MAdCAM antibody Clone ID 64 of Table 7 (IgG) (antibody, V domains shown)
VH: EVQLLESGGGLVQPGGSLRLSCAASGFTFSNSDMNWVRQAPGKGLEWVAHIWNDGSQKYYADSVKGRFTISRDNSKNTLYLQMNSLRAEDTAVYYCARDRTDPGYSSAMDVWGQGTTVTVSS
VL: DIQMTQSPSSLSASVGDRVTITCRASQDIRNYLGWYQQKPGKAPKLLIYDASSLETGVPSRFSGSGSGTDFTLTISSLQPEDFATYYCQQATSLPLTFGGGTKVEIK
B2: MAdCAM antibody Clone ID 14 of Table 6 (scFv) (scFv)
scFv: QVQLVQSGAEVKKPGSSVKVSCKASGYTFTDYHIHWVRQAPGQGLEWMGGIVPRSGSTTYAQKFQGRVTITADESTSTAYMELSSLRSEDTAVYYCAKDESSGWYYFDYWGQGTLVTVSSGGGGSGGGGSGGGGSGGGGSDIVMTQSPLSLPVTPGEPASISCRSSQSLLHSNGYNYLDWYLQKPGQSPQLLIYSAYNRASGVPDRFSGSGSGTDFTLKISRVEAEDVGVYYCMQALQTPLTFGQGTKVEIK
B3: MAdCAM antibody Clone ID 69 of Table 7 (IgG) (antibody, V domains shown)
VH: QVQLVQSGAEVKKPGASVKVSCKASGYTFTSYYMHWVRQAPGQGLEWMGIIDPSGGSTSYAQKFQGRVTMTRDTSTSTVYMELSSLRSEDTAVYYCAREEWSSGGVGYFDYWGQGTLVTVSS
VL: DIQMTQSPSSLSASVGDRVTITCRASQGISSYLAWYQQKPGKAPKLLIYATSSLQTGVPSRFSGSGSGTDFTLTISSLQPEDFATYYCQQTYSIPITFGQGTRLEIK
B4: MAdCAM antibody Clone ID 10 of Table 6 (scFv) (scFv)
scFv: QVQLVQSGAEVKKPGASVKVSCKASGYTLTTWYMYWVRQAPGQGLEWMGWINPNRGATNYAQKFQGRVTMTRDTSTSTVYMELSSLRSEDTAVYYCAKGDLWGAMDVWGQGTLVTVSSGGGGSGGGGSGGGGSGGGGSDIQMTQSPSSLSASVGDRVTITCRASDNIGSWLAWYQQKPGKAPKLLIYAASSLQSGVPSRFSGSGSGTDFTLTISSLQPEDFATYYCQQGYSTPPTFGQGTKVEIK
B5: MAdCAM antibody Clone ID 57 of Table 6 (scFv) (scFv)
scFv: QVQLVQSGAEVKKPGASVKVSCKASGYTFTSYYMHWVRQAPGQGLEWMGIINPSGGSTSYAQKFQGRVTMTRDTSTSTVYMELSSLRSEDTAVYYCARDSVAGTGGRYYGMDVWGQGTLVTVSSGGGGSGGGGSGGGGSGGGGSDIQMTQSPSSLSASVGDRVTITCRASQGISNYFAWYQQKPGKAPKLLIYAASSLQGGVPSRFSGSGSGTDFTLTISSLQPEDFATYYCQQSYSLPYTFGQGTKLEIK
B6: MAdCAM antibody Clone ID 54 of Table 7 (IgG) (antibody, V domains shown)
VH: QVQLVQSGAEVKKPGSSVKVSCKASGGTLSRYGVSWVRQAPGQGLEWMGGIIPIFGTTNYAQKFQGRVTITADESTSTAYMELSSLRSEDTAVYYCARDRVYYDSSGYPTWYFDLWGRGTLVTVSS
VL: EIVMTQSPATLSVSPGERATLSCRASQSVSSSYLAWYQQKPGQAPRLLIYGASTRATGIPARFSGSGSGTEFTLTISSLQSEDFAVYYCQQYGSSPITFGQGTKVEIK
B7: MAdCAM antibody Clone ID 2 of Table 7 (IgG) (antibody, V domains shown)
VH: QVQLVQSGAEVKKPGASVKVSCKASGYPFIGYYLHWVRQAPGQGLEWMGIINPSGGSTSYAQKFQGRVTMTRDTSTSTVYMELSSLRSEDTAVYYCAREGRLSYGMDAWGQGTLVTVSS
VL: DIQMTQSPSSLSASVGDRVTITCRASQSISSYLAWYQQKPGKAPKLLIYGASTLESGVPSRFSGSGSGTDFTLTISSLQPEDFATYYCQQTWGPPFTFGQGTKLEIK
B8: MAdCAM antibody Clone ID 3 of Table 7 (IgG) (antibody, V domains shown)
VH: B7 VH with Y32Q
VL: B7 VL
B9: MAdCAM antibody Clone ID 56 of Table 7 (IgG) (antibody, V domains shown)
VH: EVQLVESGGGLVKPGGSLRLSCAASGFTFSSYWMSWVRQAPGKGLEWVSAIGTGGGTYYAAPVKGRFTISRDDSKNTLYLQMNSLKTEDTAVYYCAREWLVPYYGMDVWGQGTTVTVSS
VL: B7 VL with S31R, Y32W, T53N, E55Q, T91S, W92Y, G93S, P94T, F96W, L104V
B10: MAdCAM antibody Clone ID 43 of Table 7 (IgG) (antibody, V domains shown)
VH: QVQLVQSGAEVKKPGASVKVSCKASGYTFTSYGISWVRQAPGQGLEWMGWMHPKSGDTGLTQKFQGRVTMTRDTSTSTVYMELSSLRSEDTAVYYCARDTPYYYYGMDVWGQGTTVTVSS
VL: B3 VL with G28S, Y32W, T51A, T56S, T91S, I94V, R103K, L104V
B11: MAdCAM antibody Clone ID 34 of Table 7 (IgG) (antibody, V domains shown)
VH: QVQLVQSGAEVKKPGASVKVSCKASGYTFTGYYIHWVRQAPGQGLEWMGWMNPNSGNTGYAQKFQGRVTMTRDTSTSTVYMELSSLRSEDTAVYYCARDPGFLGYCSGGSCYDGWFDPWGQGTLVTVSS
VL: B3 VL with G28S, A34H, T51A, T56S, T91S, S93T, I94A, I96Y, R103K
B12: MAdCAM antibody Clone ID 66 of Table 7 (IgG) (antibody, V domains shown)
VH: QVQLVQSGAEVKKPGASVKVSCKASGYTFTGHYMHWVRQAPGQGLEWMGIINPSGGSTSYAQKFQGRVTMTRDTSTSTVYMELSSLRSEDTAVYYCARDGAWFGEEYYYGMDVWGQGTTVTVSS
VL: DIQMTQSPSSLSASVGDRVTITCRASQGISNWLAWYQQKPGKAPKLLIYDASNLETGVPSRFSGSGSGTDFTLTISSLQPEDFATYYCQQYYSFPLYTFGQGTKVEIK
B13: MAdCAM antibody Clone ID 16 of Table 6 (scFv) (scFv)
scFv: EVQLLESGGGLVQPGGSLRLSCAASGFTFEDYAMHWVRQAPGKGLEWVSYLNSDGGSTSYADSVKGRFTISRDNSKNTLYLQMNSLRAEDTAVYYCAKDYCTNGVCAFDYWGQGTLVTVSSGGGGSGGGGSGGGGSGGGGSDIQMTQSPSSLSASVGDRVTITCRASQSISTYLNWYQQKPGKAPKLLIYDASNLETGVPSRFSGSGSGTDFTLTISSLQPEDFATYYCQQSYTIPITFGQGTRLEIK
B14: MAdCAM antibody Clone ID 46 of Table 7 (IgG) (antibody, V domains shown)
VH: EVQLLESGGGLVQPGGSLRLSCAASGFSFSSYTMNWVRQAPGKGLEWVSFITSSSRTIYYADSVKGRFTISRDNSKNTLYLQMNSLRAEDTAVYYCARDRRGDYGDSWYFDLWGRGTLVTVSS
VL: EIVMTQSPATLSVSPGERATLSCRASQSVRNYLAWYQQKPGQAPRLLIYGASTRATGIPARFSGSGSGTEFTLTISSLQSEDFAVYYCQQYGSSPLTFGGGTKVEIK
B15: MAdCAM antibody Clone ID 15 of Table 6 (scFv) (scFv)
scFv: QVQLVQSGAEVKKPGSSVKVSCKASGYTFTNYYMHWVRQAPGQGLEWMGGIIPIVDRVKYAQKFQGRVTITADESTSTAYMELSSLRSEDTAVYYCAKGRYTVNYYYGMDVWGQGTTVTVSSGGGGSGGGGSGGGGSGGGGSDIQMTQSPSSLSASVGDRVTITCQANQDISNYLNWYQQKPGKAPKLLIYRASKLEAGVPSRFSGSGSGTDFTLTISSLQPEDFATYYCQQSSEIPYSFGQGTKLEIK
B16: MAdCAM antibody Clone ID 12 of Table 7 (IgG) (antibody, V domains shown)
VH: QVQLVQSGAEVKKPGASVKVSCKASGYTLTTWYMYWVRQAPGQGLEWMGWINPNRGATNYAQKFQGRVTMTRDTSTSTVYMELSSLRSEDTAVYYCAKGDLWGAMDVWGQGTLVTVSS
VL: DIQMTQSPSSLSASVGDRVTITCRASDNIGSWLAWYQQKPGKAPKLLIYAASSLQSGVPSRFSGSGSGTDFTLTISSLQPEDFATYYCQQGYSTPPTFGQGTKVEIK
B17: MAdCAM antibody Clone ID 39 of Table 7 (IgG) (antibody, V domains shown)
VH: QVQLVQSGAEVKKPGASVKVSCKASGYTFTSYYMHWVRQAPGQGLEWMAWMNPNSGNTGYAQKFQGRVTMTRDTSTSTVYMELSSLRSEDTAVYYCARDYDFWSGSLGYWGQGTLVTVSS
VL: B16 VL with D27Q, N28G, G30S, S31N, W32Y, G91S, P96W
B18: MAdCAM antibody Clone ID 13 of Table 6 (scFv) (scFv)
scFv: EVQLLESGGGLVQPGGSLRLSCAASGFTFDDYAMHWVRQAPGKGLEWVSYIDASGTTIYYADSVKGRFTISRDNSKNTLYLQMNSLRAEDTAVYYCAKDQAAAGYWYFDLWGRGTLVTVSSGGGGSGGGGSGGGGSGGGGSDIQMTQSPSSLSASVGDRVTITCQASQDISNYLNWYQQKPGKAPKLLIYKASTLESGVPSRFSGSGSGTDFTLTISSLQPEDFATYYCQQSYSTPITFGQGTRLEIK
B19: MAdCAM antibody Clone ID 8 of Table 6 (scFv) (scFv)
scFv: EVQLLESGGGLVQPGGSLRLSCAASGFMFGDYAMHWVRQAPGKGLEWVSAISGSGGSTYYADSVKGRFTISRDNSKNTLYLQMNSLRAEDTAVYYCAKDLVVAGIWYFDLWGRGTLVTVSSGGGGSGGGGSGGGGSGGGGSDIQMTQSPSSLSASVGDRVTITCRASQGISNNLNWYQQKPGKAPKLLIYDASSLESGVPSRFSGSGSGTDFTLTISSLQPEDFATYYCQQTHSFPSTFGQGTKLEIK
B20: MAdCAM antibody Clone ID 11 of Table 6 (scFv) (scFv)
scFv: QVQLVQSGAEVKKPGASVKVSCKASGYTFTTYYMHWVRQAPGQGLEWMGGFDPEDGETIYAQKFQGRVTMTRDTSTSTVYMELSSLRSEDTAVYYCARHAVAGAVGAGYYYYGMDVWGQGTMVTVSSGGGGSGGGGSGGGGSGGGGSDIQMTQSPSSLSASVGDRVTITCRASESISNWLAWYQQKPGKAPKLLIYAASTLQSGVPSRFSGSGSGTDFTLTISSLQPEDFATYYCQQSYSVPFTFGPGTKVDIK
B21: MAdCAM antibody Clone ID 12 of Table 6 (scFv) (scFv)
scFv: QVQLVQSGAEVKKPGASVKVSCKASGYTFTGYYMHWVRQAPGQGLEWMGWIGPNSGDTNYAQKFQGRVTMTRDTSTSTVYMELSSLRSEDTAVYYCARDLDHNWYFDLWGRGTLVTVSSGGGGSGGGGSGGGGSGGGGSDIVMTQSPLSLPVTPGEPASISCRSSQSLLHSNGYNYLDWYLQKPGQSPQLLIYSSSNRAPGVPDRFSGSGSGTDFTLKISRVEAEDVGVYYCMQALHIPLTFGGGTKVEIK
B22: MAdCAM antibody Clone ID 58 of Table 6 (scFv) (scFv)
scFv: QVQLVQSGAEVKKPGASVKVSCKASGYTFTGYYMHWVRQAPGQGLEWMGIINPSGGNTKYAQKFQGRVTMTRDTSTSTVYMELSSLRSEDTAVYYCTTADYYYYMDVWGKGTTVTVSSGGGGSGGGGSGGGGSGGGGSDIQMTQSPSSLSASVGDRVTITCRASQGISNYLAWYQQKPGKAPKLLIYAASSLQSGVPSRFSGSGSGTDFTLTISSLQPEDFATYYCQQYYSNADFGQGTKVEIK

What follows are binders tested against Cyno MAdCAM protein (cyno) (assay: ELISA).

Row | binding | Binder
1 | binds | B1
2 | binds | B2
3 | binds | B3
4 | binds | B4
5 | binds | B5
6 | binds | B6
7 | binds | B7
8 | binds | B8
9 | binds | B9
10 | binds | B10
11 | binds | B11
12 | binds | B12
13 | binds | B13
14 | binds | B14
15 | binds | B15
16 | binds | B16
17 | binds | B17
18 | binds | B18
19 | binds | B19
20 | binds | B20
21 | binds | B21
22 | binds | B22
